We go through 16 substances from paper PMC8143644.

Chains of the proteins cited; added tags and fusions are not shown. Lines headed by an entry give the natural chain unless they say otherwise; changes in a name come on top.
UniProt A1ZB44: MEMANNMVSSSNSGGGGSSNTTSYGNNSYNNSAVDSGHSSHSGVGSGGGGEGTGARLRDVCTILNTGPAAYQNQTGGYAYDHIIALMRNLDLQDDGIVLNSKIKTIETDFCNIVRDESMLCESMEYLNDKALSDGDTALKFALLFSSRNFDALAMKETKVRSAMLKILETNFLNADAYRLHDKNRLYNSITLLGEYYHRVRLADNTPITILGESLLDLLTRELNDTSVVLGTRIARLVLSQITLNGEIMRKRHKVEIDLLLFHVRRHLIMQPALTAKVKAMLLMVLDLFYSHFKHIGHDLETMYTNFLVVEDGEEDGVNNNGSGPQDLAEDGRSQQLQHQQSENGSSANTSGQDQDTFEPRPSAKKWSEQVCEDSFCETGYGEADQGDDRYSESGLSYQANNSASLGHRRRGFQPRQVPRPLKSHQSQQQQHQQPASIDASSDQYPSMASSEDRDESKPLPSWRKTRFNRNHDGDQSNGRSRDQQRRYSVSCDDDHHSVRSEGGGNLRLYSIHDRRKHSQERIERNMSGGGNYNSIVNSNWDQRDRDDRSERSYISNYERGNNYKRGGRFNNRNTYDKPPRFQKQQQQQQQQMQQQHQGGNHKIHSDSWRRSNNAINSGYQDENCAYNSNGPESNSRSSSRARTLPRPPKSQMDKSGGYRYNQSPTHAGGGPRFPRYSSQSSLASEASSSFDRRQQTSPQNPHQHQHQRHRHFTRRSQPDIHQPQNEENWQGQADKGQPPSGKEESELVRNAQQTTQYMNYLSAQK
UniProt P55824: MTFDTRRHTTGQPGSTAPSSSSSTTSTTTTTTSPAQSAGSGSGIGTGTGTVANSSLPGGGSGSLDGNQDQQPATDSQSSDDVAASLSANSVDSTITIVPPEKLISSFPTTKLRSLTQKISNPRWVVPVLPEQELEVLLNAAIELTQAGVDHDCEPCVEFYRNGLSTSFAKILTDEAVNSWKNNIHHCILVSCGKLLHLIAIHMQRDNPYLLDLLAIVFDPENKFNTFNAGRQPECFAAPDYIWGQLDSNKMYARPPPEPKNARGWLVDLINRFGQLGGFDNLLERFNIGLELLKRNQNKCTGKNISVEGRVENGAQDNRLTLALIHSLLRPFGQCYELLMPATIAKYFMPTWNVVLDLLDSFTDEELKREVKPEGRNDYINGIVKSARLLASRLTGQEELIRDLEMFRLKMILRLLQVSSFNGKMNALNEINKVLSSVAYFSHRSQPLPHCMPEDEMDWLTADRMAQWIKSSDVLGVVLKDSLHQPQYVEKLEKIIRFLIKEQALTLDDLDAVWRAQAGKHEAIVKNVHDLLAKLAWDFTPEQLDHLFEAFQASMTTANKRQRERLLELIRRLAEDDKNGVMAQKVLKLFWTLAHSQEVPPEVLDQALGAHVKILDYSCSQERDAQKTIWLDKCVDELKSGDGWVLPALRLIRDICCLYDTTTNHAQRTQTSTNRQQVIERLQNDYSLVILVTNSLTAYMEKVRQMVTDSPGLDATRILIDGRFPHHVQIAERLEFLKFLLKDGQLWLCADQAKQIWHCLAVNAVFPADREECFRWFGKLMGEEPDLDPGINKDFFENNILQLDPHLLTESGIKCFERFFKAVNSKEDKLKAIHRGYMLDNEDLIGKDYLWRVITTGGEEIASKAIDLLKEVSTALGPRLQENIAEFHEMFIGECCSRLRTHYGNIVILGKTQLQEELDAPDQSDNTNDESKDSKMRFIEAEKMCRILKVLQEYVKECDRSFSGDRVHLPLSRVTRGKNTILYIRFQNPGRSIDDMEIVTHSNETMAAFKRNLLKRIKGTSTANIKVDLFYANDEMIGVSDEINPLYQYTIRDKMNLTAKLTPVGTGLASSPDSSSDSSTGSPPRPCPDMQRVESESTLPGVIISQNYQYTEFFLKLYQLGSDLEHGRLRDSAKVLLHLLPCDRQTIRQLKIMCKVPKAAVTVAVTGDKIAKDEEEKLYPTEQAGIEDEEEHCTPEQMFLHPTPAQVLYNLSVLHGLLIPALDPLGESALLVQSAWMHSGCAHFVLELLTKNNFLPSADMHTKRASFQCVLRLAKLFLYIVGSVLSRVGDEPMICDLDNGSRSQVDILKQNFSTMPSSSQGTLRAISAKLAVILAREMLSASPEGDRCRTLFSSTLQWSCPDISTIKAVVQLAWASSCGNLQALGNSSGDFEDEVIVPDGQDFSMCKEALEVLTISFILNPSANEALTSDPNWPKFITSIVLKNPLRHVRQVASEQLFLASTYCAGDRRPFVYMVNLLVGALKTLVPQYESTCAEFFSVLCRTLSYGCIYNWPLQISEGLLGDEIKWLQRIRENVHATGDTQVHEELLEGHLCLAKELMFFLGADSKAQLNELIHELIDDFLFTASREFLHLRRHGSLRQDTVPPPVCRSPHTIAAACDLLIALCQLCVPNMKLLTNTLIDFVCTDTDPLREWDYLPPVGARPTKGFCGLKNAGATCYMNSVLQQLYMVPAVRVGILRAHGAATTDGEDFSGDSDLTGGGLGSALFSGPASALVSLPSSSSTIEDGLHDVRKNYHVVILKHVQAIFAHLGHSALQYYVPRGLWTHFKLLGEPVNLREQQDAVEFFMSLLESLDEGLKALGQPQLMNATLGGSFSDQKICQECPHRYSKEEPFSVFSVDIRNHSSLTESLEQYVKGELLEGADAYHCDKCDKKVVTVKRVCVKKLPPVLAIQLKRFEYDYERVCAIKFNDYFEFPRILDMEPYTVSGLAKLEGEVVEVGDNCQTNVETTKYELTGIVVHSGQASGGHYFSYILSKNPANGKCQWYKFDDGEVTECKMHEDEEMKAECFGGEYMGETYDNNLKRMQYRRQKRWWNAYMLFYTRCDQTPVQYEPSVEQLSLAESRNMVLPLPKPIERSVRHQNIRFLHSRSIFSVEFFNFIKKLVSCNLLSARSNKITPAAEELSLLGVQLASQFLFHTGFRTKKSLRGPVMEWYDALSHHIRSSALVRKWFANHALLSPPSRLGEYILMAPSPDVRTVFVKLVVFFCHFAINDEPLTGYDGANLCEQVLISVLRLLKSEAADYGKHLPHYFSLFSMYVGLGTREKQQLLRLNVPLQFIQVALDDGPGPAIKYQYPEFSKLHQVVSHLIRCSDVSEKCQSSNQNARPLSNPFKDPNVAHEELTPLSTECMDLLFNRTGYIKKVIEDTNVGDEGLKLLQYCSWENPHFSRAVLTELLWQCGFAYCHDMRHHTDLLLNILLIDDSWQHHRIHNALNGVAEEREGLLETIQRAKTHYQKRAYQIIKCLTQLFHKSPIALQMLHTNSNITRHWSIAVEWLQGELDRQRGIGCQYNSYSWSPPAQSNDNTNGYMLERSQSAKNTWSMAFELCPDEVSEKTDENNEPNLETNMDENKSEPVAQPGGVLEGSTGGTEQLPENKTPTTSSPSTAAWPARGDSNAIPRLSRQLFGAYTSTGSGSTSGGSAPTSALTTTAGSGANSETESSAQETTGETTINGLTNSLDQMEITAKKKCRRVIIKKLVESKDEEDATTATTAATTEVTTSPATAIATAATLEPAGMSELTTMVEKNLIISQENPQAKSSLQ
UniProt Q9NFU0: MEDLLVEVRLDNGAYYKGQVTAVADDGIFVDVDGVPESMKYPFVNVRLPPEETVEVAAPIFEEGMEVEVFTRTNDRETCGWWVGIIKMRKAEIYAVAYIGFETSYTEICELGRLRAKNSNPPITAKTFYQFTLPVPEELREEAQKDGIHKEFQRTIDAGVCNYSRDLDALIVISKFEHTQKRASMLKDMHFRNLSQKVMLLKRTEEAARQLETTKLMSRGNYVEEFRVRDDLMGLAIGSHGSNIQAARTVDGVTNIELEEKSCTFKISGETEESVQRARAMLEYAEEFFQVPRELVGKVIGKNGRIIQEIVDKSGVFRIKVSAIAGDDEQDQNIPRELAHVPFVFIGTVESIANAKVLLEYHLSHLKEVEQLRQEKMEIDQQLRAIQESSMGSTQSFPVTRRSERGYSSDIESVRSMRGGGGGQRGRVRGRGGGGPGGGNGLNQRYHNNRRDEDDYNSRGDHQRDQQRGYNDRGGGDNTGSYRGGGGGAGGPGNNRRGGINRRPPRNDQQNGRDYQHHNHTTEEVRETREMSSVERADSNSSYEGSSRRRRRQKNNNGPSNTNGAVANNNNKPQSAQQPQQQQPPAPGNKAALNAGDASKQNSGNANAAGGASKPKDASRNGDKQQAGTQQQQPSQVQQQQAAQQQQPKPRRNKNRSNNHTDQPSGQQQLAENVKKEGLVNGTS
UniProt Q9W3M7: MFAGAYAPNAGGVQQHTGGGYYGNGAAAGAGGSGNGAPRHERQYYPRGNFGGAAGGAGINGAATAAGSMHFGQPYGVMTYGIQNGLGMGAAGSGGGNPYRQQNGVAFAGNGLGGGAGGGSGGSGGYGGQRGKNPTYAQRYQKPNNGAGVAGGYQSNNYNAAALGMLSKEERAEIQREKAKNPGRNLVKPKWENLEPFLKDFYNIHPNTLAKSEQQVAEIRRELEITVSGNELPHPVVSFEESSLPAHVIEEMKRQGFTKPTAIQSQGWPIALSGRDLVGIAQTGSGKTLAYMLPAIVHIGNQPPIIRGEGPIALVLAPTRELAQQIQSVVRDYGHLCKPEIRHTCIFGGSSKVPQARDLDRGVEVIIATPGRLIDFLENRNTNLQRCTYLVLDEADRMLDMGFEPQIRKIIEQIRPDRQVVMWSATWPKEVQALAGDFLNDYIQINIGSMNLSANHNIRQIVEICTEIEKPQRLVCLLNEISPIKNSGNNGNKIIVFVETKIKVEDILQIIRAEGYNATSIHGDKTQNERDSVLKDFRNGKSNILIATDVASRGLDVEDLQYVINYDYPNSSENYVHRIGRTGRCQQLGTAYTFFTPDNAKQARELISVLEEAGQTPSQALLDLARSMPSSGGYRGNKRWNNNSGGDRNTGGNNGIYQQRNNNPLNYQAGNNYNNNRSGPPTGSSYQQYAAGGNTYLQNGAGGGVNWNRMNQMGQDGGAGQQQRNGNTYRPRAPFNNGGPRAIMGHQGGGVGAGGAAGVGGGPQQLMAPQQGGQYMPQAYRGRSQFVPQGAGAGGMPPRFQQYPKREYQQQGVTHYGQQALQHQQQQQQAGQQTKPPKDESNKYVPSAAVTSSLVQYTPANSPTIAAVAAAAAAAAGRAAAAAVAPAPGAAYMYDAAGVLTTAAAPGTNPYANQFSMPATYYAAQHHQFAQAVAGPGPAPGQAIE
UniProt P21187: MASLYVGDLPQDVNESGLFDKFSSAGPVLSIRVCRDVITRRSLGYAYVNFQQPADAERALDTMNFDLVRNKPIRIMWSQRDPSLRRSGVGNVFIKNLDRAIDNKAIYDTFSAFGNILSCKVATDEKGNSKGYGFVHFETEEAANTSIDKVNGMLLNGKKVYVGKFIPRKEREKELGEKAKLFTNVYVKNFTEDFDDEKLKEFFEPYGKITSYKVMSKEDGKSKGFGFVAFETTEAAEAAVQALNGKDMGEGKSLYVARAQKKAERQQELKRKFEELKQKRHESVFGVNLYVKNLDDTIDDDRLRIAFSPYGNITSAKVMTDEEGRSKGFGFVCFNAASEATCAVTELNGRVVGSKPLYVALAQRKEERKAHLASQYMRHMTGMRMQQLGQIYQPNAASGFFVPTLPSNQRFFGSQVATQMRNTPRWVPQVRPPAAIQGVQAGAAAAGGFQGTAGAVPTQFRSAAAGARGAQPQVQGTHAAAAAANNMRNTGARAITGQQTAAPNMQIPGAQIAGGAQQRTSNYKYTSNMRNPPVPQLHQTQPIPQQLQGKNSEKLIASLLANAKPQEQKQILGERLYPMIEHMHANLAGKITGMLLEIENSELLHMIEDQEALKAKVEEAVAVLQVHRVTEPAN
UniProt Q05856: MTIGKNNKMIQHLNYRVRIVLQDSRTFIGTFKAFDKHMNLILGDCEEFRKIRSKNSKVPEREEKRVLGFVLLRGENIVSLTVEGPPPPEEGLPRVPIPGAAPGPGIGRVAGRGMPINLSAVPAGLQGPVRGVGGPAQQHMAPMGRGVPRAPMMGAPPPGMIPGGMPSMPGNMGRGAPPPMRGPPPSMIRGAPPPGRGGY
UniProt Q02748: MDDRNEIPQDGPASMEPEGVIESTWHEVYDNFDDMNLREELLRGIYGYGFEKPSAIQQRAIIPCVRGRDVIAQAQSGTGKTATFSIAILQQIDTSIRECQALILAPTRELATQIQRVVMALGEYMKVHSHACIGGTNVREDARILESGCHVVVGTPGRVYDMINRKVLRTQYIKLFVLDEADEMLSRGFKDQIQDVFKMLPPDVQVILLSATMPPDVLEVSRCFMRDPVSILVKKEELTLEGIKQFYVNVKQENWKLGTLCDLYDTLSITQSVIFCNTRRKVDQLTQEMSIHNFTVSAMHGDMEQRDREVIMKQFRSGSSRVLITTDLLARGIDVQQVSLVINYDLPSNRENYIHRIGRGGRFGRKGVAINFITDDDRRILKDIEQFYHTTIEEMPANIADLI

What all share (assay): affinity purification with mass spectrometry; whole ovaries of flies expressing GFP-tagged baits lysed in 50 mM Tris-HCl pH 7.5, 100 mM NaCl, 250 mM sucrose, 0.1% Nonidet P-40, 1 mM DTT; RNase A/T1 treated; GFP-TRAP MA beads, 1 h at 4 °C; tag alone as control; label-free LC-MS/MS (all six baits) and dimethyl labeling MS (Hrp48, Vas)
The target of assay [1] is T1, Glo-GFP (Drosophila melanogaster) (UniProt Q9VGH5).
T1 sequence: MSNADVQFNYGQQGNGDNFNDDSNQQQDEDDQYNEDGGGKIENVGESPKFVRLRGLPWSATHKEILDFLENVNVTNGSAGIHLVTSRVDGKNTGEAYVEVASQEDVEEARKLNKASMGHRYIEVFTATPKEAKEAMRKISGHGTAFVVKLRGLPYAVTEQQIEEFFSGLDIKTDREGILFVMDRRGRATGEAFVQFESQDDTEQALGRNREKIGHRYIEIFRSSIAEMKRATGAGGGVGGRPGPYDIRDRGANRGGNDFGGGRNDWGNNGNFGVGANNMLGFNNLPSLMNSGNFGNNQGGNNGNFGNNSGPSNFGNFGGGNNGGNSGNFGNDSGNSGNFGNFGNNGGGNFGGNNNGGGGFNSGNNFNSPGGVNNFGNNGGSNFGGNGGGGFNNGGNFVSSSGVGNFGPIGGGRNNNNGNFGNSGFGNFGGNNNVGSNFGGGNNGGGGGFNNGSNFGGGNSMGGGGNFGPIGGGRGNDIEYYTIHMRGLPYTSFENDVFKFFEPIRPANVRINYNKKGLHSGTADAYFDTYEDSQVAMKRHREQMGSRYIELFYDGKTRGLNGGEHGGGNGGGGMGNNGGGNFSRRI

Assay [2] has as its target T2, Hrp48-GFP (Drosophila melanogaster) (UniProt P48809).
T2 sequence: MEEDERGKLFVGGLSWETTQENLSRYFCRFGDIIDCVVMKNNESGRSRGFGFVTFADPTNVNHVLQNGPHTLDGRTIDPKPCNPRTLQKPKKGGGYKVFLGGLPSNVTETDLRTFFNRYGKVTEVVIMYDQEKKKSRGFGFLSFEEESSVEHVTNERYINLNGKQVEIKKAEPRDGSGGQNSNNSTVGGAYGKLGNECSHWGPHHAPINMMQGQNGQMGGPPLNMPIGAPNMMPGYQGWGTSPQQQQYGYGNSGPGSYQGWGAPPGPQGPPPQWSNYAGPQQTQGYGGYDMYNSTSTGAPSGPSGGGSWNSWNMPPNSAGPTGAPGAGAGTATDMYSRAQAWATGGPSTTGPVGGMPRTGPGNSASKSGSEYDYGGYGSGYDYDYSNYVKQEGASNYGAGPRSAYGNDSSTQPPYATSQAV

For assay [3], the target named is T3, Vas-GFP (Drosophila melanogaster) (UniProt P09052).
T3 sequence: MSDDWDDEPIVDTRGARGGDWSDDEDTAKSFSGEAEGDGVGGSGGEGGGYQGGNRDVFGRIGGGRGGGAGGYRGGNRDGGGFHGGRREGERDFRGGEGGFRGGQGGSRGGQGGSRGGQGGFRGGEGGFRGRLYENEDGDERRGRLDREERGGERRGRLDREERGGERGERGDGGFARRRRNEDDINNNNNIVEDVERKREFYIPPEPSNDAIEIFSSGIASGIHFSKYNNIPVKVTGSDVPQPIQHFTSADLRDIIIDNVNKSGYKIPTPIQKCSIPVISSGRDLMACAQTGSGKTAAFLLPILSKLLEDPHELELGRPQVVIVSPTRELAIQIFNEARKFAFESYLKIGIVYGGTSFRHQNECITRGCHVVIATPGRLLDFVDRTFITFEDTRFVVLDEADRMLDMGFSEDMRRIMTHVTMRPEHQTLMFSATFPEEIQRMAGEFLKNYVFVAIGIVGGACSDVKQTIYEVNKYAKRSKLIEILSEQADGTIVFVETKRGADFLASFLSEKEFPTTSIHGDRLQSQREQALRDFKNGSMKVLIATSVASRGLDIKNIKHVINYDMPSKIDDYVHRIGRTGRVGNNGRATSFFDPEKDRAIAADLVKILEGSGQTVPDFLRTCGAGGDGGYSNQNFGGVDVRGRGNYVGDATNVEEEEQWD

Assay [4] has as its target T4, Stau-GFP (Drosophila melanogaster) (UniProt P25159).
T4 sequence: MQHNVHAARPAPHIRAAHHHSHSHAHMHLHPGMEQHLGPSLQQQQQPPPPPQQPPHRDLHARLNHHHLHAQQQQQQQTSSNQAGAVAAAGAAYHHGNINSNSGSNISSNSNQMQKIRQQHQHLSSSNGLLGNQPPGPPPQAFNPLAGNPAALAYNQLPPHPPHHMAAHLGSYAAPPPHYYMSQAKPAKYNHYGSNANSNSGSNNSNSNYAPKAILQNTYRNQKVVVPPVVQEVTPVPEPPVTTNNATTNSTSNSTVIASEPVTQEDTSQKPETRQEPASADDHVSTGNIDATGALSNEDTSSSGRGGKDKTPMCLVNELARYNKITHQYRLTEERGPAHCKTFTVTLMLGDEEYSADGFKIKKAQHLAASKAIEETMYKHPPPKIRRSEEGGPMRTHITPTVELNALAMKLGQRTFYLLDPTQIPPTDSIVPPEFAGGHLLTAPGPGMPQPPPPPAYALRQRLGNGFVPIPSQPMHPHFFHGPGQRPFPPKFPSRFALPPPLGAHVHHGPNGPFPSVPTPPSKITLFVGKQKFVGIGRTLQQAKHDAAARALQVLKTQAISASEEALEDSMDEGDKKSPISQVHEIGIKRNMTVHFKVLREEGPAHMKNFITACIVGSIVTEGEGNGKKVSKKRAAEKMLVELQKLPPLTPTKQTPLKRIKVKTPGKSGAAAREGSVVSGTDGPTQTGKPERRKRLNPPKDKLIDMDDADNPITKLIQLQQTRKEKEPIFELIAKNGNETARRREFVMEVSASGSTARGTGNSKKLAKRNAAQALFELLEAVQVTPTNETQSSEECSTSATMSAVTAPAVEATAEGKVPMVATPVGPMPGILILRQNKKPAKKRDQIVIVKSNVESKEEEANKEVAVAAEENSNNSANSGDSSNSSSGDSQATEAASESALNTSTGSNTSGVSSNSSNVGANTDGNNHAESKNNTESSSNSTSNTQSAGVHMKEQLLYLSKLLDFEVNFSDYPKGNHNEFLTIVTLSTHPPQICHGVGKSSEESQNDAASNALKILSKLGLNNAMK

Results are given in words; binding and its absence hold for the method and conditions named. In cells and extracts the contact can be indirect. Here binding means that the protein was enriched with, or labelled near, the bait; the list need not be complete. For some of these results: A no says only that the protein was not detected with the bait. Where a sequence is shown, tags or fusion partners need not be part of it.

As to CG5726 protein (from UniProt A1ZB44), the binding entry in assay [1], in assay [2] and in assay [3] was “binds” in each case.
With CG10077 (endogenous), the binding result in assay [1] is “binds”.
With Dicer, the binding entry in assay [4] is “binds”.
For Fat facets (from UniProt P55824 1-2778), the binding result in assay [3] was “binds”.
The same measure, in the same setting: in the case of Fmr1 (from UniProt Q9NFU0 1-684) it was “binds”.
Consider Kumo (Qin), for which, in assay [3], the binding result is reported as “binds”.
On to “Mahe (Maheshvara) (endogenous) (from UniProt Q9W3M7)”, for which the binding result in assay [1] and in assay [2] was “binds” throughout.
As to Orb, the binding entry in assay [2] is given as “binds”.
Same read-out and setting: the result for PABP (from UniProt P21187 1-634) reads “binds”.
For SmB (from UniProt Q05856 1-199), the binding entry is listed as “binds” in assay [1], “binds” in assay [2], “binds weakly” in assay [4] and “binds” in assay [3].
For the substance Syncrip, the binding entry in assay [2] was “binds”.
Turning to Tapas, in assay [3], the binding entry is on record as “binds”.
On to cap-binding complex of eIF4E-4G, for which the binding entry in assay [3] is “binds”.
With eIF3d, the binding entry in assay [2] was “binds”.
With eIF4A (from UniProt Q02748 1-403), the binding entry in assay [3] is reported as “no binding”.
Consider eIF5B, for which the binding entry in assay [3] is “no binding”.
